These are yes or no findings as the source states them, for the method shown. In cells and extracts the contact can be indirect. Binding can be weak; no strength is given. Sequences can lack the tags named with a protein.
Target: γ‐tubulin (human (endogenous in MCF10A)) (UniProt P23258)
Test: co-IP; 293T cells transfected with the indicated plasmids; lysis in 20 mM Tris-HCl, 150 mM NaCl, 1 mM EDTA, 1 mM EGTA, 1% NP-40, 2.5 mM sodium pyrophosphate, 10% glycerol, pH 7.5; beads 4 °C 4 h, five washes, immunoblotting

Sequences of proteins named here, by UniProt entry; tags and fusion partners are left off. A change or cut given only in a name is not applied to a line headed by its entry.
UniProt P23258: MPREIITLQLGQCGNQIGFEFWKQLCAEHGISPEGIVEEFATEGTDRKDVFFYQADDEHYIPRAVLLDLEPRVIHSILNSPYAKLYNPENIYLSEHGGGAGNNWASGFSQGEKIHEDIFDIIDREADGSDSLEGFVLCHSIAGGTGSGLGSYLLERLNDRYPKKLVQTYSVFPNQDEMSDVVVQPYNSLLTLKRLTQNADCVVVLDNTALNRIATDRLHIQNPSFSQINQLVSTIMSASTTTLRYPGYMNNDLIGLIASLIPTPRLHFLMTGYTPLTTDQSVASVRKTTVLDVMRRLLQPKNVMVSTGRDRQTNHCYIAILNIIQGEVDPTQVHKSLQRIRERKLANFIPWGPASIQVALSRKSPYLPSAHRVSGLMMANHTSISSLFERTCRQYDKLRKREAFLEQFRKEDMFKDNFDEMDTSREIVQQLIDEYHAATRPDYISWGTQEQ

binding: binds
B1: GFP‐CEP131 (protein, UniProt Q9UPN4 1-1083)
chain: MKGTRAIGSVPERSPAGVDLSLTGLPPPVSRRPGSAATTKPIVRSVSVVTGSEQKRKVLEATGPGGSQAINNLRRSNSTTQVSQPRSGSPRPTEPTDFLMLFEGSPSGKKRPASLSTAPSEKGATWNVLDDQPRGFTLPSNARSSSALDSPAGPRRKECTVALAPNFTANNRSNKGAVGNCVTTMVHNRYTPSERAPPLKSSNQTAPSLNNIIKAATCEGSESSGFGKLPKNVSSATHSARNNTGGSTGLPRRKEVTEEEAERFIHQVNQATVTIQRWYRHQVQRRGAGAARLEHLLQAKREEQRQRSGEGTLLDLHQQKEAARRKAREEKARQARRAAIQELQQKRALRAQKASTAERGPPENPRETRVPGMRQPAQELSPTPGGTAHQALKANNTGGGLPAAGPGDRCLPTSDSSPEPQQPPEDRTQDVLAQDAAGDNLEMMAPSRGSAKSRGPLEELLHTLQLLEKEPDVLPRPRTHHRGRYAWASEVTTEDDASSLTADNLEKFGKLSAFPEPPEDGTLLSEAKLQSIMSFLDEMEKSGQDQLDSQQEGWVPEAGPGPLELGSEVSTSVMRLKLEVEEKKQAMLLLQRALAQQRDLTARRVKETEKALSRQLQRQREHYEATIQRHLAFIDQLIEDKKVLSEKCEAVVAELKQEDQRCTERVAQAQAQHELEIKKLKELMSATEKARREKWISEKTKKIKEVTVRGLEPEIQKLIARHKQEVRRLKSLHEAELLQSDERASQRCLRQAEELREQLEREKEALGQQERERARQRFQQHLEQEQWALQQQRQRLYSEVAEERERLGQQAARQRAELEELRQQLEESSSALTRALRAEFEKGREEQERRHQMELNTLKQQLELERQAWEAGRTRKEEAWLLNREQELREEIRKGRDKEIELVIHRLEADMALAKEESEKAAESRIKRLRDKYEAELSELEQSERKLQERCSELKGQLGEAEGENLRLQGLVRQKERALEDAQAVNEQLSSERSNLAQVIRQEFEDRLAASEEETRQAKAELATLQARQQLELEEVHRRVKTALARKEEAVSSLRTQHEAAVKRADHLEELLEQHRRPTPSTK
